PMC5841288
These are yes or no findings as the source states them, for the method shown. Binding seen in cells or lysates may run through a third protein. Some results given as binding are weak or reduced against the parent protein; the word gives no strength. Values belong to the molecule of their own block, whether it stands above or below them.

Sequences of proteins named here, by UniProt entry; tags and fusion partners are left off. A change or cut given only in a name is not applied to a line headed by its entry. A line that says so, or that is headed by a name, gives the form on record, which may keep a tag or linker.
Flag-Itch (Q96J02, form named): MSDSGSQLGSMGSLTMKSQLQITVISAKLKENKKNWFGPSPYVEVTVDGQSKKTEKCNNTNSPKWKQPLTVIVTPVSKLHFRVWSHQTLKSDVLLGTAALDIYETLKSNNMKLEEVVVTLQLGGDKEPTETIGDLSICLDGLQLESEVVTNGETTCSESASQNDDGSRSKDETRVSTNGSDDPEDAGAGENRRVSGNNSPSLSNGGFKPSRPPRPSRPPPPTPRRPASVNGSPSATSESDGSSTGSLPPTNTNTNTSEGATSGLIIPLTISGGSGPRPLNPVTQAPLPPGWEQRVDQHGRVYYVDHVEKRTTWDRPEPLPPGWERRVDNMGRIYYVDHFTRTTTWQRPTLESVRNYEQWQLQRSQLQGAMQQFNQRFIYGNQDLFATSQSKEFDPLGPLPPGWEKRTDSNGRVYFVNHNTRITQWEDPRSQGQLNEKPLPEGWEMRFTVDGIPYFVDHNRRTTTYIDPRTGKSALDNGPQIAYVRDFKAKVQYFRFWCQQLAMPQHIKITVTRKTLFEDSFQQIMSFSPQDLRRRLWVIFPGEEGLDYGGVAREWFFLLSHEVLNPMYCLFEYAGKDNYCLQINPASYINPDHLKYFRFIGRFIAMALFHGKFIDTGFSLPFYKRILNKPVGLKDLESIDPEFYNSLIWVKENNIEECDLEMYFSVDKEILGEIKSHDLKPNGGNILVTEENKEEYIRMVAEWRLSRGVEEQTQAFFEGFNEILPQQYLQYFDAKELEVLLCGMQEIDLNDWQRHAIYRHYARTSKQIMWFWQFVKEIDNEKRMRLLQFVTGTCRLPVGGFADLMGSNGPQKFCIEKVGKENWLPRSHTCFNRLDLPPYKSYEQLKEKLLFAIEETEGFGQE
UniProt Q8C863: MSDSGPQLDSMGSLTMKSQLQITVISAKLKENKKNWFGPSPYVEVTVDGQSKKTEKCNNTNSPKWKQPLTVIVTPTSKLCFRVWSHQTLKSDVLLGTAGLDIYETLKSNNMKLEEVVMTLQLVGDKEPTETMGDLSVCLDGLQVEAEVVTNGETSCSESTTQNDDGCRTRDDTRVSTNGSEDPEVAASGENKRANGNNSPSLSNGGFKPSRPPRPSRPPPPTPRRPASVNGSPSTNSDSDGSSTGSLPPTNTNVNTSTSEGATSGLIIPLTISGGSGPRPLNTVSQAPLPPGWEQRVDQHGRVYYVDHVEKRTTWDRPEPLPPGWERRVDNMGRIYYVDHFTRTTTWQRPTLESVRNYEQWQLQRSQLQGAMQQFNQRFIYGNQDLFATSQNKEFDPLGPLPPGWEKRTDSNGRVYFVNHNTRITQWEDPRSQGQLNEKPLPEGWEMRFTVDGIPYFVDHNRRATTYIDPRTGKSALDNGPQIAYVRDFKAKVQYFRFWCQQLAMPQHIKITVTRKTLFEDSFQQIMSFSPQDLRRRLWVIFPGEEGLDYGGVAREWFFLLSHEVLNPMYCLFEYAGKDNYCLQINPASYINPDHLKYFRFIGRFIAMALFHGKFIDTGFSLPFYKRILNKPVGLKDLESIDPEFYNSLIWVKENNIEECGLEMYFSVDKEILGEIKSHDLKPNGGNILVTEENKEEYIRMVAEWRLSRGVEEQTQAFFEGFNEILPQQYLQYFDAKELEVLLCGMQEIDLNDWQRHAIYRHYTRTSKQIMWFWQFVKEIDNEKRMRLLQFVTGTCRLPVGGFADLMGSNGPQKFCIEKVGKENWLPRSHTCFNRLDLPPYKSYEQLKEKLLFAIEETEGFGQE
UniProt Q61602: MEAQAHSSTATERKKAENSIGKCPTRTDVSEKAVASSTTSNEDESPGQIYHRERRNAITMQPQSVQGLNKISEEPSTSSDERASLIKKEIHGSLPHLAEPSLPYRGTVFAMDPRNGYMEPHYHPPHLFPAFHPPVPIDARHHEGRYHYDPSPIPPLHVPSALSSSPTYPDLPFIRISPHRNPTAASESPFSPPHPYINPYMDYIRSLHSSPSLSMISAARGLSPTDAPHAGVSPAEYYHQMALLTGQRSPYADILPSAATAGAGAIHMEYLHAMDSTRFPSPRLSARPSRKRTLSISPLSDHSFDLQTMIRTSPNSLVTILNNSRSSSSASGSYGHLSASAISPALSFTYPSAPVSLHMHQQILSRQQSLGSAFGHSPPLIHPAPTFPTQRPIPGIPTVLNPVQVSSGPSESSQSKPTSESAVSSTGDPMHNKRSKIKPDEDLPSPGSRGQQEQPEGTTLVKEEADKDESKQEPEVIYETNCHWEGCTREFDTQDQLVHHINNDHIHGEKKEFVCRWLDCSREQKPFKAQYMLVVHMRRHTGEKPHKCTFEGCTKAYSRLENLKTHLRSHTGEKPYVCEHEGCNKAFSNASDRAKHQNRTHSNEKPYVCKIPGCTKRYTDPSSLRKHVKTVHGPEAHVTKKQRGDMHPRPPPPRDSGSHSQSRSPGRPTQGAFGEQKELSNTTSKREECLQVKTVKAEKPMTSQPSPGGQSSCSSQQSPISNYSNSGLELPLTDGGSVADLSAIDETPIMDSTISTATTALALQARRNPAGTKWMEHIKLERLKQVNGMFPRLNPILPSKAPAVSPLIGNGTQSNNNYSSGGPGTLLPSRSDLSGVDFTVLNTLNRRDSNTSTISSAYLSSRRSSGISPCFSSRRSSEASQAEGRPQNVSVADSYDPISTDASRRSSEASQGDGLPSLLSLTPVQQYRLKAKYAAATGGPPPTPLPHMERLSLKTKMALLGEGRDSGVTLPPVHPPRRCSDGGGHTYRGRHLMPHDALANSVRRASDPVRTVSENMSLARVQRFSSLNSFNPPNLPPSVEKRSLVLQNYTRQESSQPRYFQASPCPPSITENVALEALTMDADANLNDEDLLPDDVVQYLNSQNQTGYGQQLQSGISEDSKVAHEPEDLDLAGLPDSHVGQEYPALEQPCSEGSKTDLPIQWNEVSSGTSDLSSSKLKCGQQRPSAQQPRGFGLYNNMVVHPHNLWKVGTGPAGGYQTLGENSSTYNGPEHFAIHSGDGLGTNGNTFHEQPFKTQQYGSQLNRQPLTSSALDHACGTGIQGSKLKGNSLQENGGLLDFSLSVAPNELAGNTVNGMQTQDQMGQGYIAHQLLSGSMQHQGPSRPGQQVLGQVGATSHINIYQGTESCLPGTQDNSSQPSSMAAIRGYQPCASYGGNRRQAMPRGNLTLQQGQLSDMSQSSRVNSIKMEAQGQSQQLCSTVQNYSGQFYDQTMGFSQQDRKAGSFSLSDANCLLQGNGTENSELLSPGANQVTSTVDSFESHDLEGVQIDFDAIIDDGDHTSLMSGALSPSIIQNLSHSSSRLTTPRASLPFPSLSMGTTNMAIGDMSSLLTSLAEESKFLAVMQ
UniProt P32121: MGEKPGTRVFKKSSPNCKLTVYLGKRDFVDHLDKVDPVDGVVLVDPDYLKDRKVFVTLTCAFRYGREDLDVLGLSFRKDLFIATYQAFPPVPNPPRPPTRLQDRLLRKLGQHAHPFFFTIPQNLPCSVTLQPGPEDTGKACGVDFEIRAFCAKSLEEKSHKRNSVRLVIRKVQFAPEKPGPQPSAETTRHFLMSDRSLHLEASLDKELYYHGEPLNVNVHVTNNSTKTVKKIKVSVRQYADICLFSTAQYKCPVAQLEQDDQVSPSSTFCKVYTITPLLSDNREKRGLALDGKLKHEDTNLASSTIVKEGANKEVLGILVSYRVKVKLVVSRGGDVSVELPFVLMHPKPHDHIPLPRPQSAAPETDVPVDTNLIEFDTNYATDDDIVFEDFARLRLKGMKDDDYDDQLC
UniProt Q91YI4: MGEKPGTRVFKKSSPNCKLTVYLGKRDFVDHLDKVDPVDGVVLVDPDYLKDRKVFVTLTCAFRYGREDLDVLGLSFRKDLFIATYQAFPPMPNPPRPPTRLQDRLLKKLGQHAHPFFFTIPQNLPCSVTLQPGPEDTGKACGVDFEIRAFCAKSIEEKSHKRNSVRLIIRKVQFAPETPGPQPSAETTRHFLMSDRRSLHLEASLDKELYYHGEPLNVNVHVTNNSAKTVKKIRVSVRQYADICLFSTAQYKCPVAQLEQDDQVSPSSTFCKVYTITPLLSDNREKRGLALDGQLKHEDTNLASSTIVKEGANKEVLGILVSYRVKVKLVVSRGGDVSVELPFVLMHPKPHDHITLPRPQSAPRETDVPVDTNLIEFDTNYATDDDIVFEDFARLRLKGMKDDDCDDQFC

Experiments:
[1] = target: Flag-Itch (UniProt Q96J02); assay: co-IP; WT MEFs transfected with combinations of Flag-Itch, GFP-β-arrestin2 and HA-SuFu; anti-Flag IP (1st IP), two elutions with Flag peptide, re-IP with HA-agarose (2nd IP)
[2] = target: Flag-Itch (UniProt Q96J02); assay: co-IP; NIH3T3 cells transfected with Flag-Itch and HA-SuFu or HA-β-arrestin2, treated with SAG (200 nM for 6 h) or vehicle; anti-Flag IP
[3] = target: endogenous Itch (mouse) (mouse (endogenous in MEFs, CD1 mouse cerebellum and Ptch+/- MB tissue)) (UniProt Q8C863); assay: co-IP; βArr2-/- MEFs with or without transfected HA-β-arrestin2; IP and immunoblot with the indicated antibodies
[4] = target: endogenous Itch (mouse) (mouse (endogenous in MEFs, CD1 mouse cerebellum and Ptch+/- MB tissue)) (UniProt Q8C863); assay: co-IP; anti-Itch IP from lysates of CD1 mouse cerebellum (P3, P7, P10, P15) and of Ptch+/- MB tissue
[5] = target: endogenous Gli3 (mouse) (mouse (endogenous in MEFs and CD1 mouse cerebellum)) (UniProt Q61602); assay: co-IP; anti-Gli3 IP from lysates of CD1 mouse cerebellum (P3, P7, P10, P15)
[6] = target: endogenous Gli3 (mouse) (mouse (endogenous in MEFs and CD1 mouse cerebellum)) (UniProt Q61602); assay: co-IP; anti-Gli3 IP from lysates of WT MEFs (siItch or siCTR) and of Itch-/- MEFs transfected with the indicated plasmids; immunoblot of SuFu, ratio to Gli3FL
[7] = target: endogenous Itch (mouse) (mouse (endogenous in MEFs, CD1 mouse cerebellum and Ptch+/- MB tissue)) (UniProt Q8C863); assay: co-IP; βArr2-/- MEFs with or without transfected HA-β-arrestin2; IP and immunoblot with the indicated antibodies; remark: listed apart in the source

Molecule: GFP-β-arrestin2 (from UniProt P32121 1-409)
- binding [1]: binds

- binding [2]: binds
- binding [3]: binds
Molecule: HA-β-arrestin2 (from UniProt P32121 1-409)

- binding [4]: binds
Molecule: endogenous β-arrestin2 (mouse) (from UniProt Q91YI4 1-410)

- binding [5]: binds
- binding [6]: binds
- binding [7]: binds
- binding [4]: binds
B1: endogenous SuFu (mouse) (protein, UniProt Q9Z0P7 1-484)
chain: MAELRPSVAPGPAAPPASGPSAPPAFASLFPPGLHAIYGECRRLYPDQPNPLQVTAIVKYWLGGPDPLDYVSMYRNMGSPSANIPEHWHYISFGLSDLYGDNRVHEFTGTDGPSGFGFELTFRLKRETGESAPPTWPAELMQGLARYVFQSENTFCSGDHVSWHSPLDNSESRIQHMLLTEDPQMQPVRTPFGVVTFLQIVGVCTEELHSAQQWNGQGILELLRTVPIAGGPWLITDMRRGETIFEIDPHLQERVDKGIETDGSNLSGVSAKCAWDDLSRPPEDEEDSRSICLGTQPRRLSGKDTEQIRETLRRGLEINSKPVLPPINSQRQNGLTHDRAPSRKDSLGSDSSTAIIPHELIRTRQLESVHLKFNQESGALIPLCLRGRLLHGRHFTYKSITGDMAITFVSTGVEGAFATEEHPYAAHGPWLQILLTEEFVEKMLEDLEDLTSPEEFKLPKEYSWPEKKLKVSILPDVVFDSPLH
